According to patent US20100022475A1, “NOVEL TRIAZOLOPYRIMIDINE DERIVATIVES” (priority 2004, published 2010):
Some results were stated once for a whole list of compounds, not compound by compound.

Test system: Uncinula necator
Assay: Uncinula necator / grape / preventive (powdery mildew)
Settings: 200 ppm, spray, grape seedlings cv. Gutedel, assessed 7 days after inoculation

In the case of `C[Si]1(CNc2c(-c3c(F)cc(F)cc3F)c(Cl)nc3ncnn23)CCCCC1` [I.o.081, [5-chloro-6-(2,4,6-trifluoro-phenyl)-[1,2,4]triazolo[1,5-a]pyrimidin-7-yl]-(1-methyl-silinan-1-ylmethyl)-amine], the inhibit fungal infestation is reported as at least 80%.
